Some of the results follow.

The chains behind the UniProt entries cited, without tags or fusion partners. Where a name states a change or a piece, a line headed by the entry shows the natural chain unless it says otherwise.
UniProt Q13243: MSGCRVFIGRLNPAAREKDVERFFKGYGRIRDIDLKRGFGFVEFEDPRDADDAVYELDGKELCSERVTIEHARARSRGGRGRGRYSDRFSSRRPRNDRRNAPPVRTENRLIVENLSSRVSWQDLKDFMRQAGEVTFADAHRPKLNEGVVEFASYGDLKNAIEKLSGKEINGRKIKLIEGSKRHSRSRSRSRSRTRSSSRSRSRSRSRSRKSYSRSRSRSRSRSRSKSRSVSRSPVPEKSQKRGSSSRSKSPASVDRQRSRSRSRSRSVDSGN
UniProt Q9BXP5: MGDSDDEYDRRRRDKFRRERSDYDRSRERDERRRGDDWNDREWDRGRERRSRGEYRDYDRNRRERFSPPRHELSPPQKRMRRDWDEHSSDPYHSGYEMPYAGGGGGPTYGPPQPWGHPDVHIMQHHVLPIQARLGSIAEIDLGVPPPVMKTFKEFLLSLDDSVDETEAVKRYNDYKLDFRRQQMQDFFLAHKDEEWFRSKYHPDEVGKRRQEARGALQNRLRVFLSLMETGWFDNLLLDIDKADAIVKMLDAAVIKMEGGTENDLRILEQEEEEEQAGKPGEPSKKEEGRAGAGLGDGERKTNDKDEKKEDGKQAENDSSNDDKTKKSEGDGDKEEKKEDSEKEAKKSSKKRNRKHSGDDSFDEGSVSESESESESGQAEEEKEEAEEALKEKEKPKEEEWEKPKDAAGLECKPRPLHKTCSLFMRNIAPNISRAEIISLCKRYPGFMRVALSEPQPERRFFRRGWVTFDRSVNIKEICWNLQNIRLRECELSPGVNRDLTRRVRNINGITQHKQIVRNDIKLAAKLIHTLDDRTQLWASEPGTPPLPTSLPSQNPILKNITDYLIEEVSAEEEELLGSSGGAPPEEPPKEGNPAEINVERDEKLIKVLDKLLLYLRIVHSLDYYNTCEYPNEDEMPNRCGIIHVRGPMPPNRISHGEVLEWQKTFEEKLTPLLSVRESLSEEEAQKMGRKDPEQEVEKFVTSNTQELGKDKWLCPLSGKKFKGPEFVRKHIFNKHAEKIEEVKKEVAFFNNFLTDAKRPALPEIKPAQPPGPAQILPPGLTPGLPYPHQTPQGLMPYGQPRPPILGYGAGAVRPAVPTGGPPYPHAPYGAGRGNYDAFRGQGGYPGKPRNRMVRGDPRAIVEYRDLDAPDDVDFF
UniProt P61009: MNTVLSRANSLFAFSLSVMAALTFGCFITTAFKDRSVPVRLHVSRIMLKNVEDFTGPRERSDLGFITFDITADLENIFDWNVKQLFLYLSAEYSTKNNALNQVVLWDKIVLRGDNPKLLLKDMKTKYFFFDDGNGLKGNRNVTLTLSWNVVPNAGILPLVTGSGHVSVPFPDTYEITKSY
UniProt Q8WW59: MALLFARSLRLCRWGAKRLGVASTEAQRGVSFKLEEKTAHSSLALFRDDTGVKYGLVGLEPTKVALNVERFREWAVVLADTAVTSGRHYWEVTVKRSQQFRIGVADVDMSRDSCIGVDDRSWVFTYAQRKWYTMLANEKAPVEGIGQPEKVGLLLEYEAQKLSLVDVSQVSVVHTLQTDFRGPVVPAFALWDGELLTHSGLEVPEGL
UniProt P43307: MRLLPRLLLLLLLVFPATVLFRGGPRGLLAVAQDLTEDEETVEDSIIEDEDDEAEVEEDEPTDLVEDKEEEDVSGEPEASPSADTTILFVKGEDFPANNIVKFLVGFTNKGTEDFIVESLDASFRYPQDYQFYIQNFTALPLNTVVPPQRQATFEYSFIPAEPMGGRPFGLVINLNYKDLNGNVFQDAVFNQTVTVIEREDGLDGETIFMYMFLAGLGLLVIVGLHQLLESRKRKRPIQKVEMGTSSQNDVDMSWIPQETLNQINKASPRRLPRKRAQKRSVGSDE
UniProt Q5W111: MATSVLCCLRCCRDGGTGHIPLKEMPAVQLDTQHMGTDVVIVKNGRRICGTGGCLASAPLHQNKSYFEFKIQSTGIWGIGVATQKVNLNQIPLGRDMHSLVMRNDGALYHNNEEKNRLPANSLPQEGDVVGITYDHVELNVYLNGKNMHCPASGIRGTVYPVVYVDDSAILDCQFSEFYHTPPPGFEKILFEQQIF
UniProt O95793: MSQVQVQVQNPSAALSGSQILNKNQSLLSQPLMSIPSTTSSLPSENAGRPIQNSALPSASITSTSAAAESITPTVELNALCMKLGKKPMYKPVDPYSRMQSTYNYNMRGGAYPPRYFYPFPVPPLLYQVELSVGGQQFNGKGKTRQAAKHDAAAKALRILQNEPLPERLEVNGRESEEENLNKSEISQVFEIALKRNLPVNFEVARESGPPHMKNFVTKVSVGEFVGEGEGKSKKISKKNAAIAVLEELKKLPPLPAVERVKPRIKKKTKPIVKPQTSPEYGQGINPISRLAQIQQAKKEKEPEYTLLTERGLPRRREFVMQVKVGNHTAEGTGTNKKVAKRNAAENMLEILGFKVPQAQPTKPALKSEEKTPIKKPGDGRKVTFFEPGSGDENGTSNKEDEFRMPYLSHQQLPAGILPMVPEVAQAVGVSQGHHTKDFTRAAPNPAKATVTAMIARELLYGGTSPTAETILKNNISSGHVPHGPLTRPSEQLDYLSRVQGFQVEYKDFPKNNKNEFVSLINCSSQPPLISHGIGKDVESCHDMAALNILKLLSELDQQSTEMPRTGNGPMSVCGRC
UniProt P16150: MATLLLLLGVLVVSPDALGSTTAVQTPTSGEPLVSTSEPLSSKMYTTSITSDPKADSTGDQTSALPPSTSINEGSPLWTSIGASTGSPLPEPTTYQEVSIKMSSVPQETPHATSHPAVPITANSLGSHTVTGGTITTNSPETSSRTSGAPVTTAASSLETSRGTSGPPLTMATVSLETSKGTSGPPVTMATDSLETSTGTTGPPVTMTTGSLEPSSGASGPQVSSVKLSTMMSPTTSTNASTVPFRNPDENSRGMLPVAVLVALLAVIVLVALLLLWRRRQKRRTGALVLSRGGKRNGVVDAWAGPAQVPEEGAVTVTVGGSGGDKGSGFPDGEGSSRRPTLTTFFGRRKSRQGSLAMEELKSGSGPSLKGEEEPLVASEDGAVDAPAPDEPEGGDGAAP
UniProt Q9Y657, whole entry, looked up: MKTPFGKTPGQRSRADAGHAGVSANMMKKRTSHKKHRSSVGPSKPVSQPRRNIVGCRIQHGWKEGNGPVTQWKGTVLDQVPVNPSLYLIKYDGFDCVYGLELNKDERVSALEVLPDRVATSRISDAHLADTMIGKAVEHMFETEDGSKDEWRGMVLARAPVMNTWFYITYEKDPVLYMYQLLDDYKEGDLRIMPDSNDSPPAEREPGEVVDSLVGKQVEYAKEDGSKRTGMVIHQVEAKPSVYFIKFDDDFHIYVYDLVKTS
UniProt P19623: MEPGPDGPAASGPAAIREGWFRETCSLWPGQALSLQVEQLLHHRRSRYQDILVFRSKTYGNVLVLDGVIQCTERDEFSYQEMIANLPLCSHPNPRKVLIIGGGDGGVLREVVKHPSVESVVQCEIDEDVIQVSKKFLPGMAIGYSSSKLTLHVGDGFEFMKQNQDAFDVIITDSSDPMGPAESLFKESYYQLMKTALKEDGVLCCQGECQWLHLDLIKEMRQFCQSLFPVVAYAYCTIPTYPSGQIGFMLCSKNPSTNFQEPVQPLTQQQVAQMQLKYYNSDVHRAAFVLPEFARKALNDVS
UniProt Q15831: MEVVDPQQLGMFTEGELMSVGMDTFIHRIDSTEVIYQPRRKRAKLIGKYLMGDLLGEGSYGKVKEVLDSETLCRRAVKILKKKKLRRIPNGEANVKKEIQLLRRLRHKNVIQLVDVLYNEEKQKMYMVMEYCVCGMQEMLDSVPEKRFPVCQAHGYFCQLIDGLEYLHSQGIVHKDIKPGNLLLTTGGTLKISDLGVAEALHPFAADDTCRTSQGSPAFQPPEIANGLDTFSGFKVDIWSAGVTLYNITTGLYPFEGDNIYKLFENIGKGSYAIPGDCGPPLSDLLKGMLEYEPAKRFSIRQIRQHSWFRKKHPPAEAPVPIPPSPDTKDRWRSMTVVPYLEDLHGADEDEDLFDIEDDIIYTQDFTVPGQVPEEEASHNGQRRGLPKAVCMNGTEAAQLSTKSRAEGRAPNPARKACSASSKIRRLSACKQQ
UniProt Q9HD15: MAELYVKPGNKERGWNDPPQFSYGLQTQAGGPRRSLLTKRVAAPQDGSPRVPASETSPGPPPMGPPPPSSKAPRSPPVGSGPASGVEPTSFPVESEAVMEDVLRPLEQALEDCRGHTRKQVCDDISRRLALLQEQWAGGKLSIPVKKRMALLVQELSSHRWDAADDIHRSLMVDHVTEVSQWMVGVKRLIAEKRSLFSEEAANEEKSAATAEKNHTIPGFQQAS
UniProt Q92783: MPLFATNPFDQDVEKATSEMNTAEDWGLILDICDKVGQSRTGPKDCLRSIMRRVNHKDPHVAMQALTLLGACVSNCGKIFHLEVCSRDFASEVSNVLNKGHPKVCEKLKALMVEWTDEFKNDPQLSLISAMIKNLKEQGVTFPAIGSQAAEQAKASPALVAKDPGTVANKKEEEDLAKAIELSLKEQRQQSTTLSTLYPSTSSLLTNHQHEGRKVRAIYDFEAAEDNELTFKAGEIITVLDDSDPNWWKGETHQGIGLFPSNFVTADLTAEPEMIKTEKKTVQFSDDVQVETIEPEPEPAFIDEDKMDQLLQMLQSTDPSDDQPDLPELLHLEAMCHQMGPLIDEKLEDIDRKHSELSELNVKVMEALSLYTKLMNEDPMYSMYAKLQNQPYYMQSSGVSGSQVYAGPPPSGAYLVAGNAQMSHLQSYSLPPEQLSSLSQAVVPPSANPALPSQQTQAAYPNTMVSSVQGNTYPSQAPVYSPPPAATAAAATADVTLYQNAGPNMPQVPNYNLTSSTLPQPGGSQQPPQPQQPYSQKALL
UniProt Q8N3U4: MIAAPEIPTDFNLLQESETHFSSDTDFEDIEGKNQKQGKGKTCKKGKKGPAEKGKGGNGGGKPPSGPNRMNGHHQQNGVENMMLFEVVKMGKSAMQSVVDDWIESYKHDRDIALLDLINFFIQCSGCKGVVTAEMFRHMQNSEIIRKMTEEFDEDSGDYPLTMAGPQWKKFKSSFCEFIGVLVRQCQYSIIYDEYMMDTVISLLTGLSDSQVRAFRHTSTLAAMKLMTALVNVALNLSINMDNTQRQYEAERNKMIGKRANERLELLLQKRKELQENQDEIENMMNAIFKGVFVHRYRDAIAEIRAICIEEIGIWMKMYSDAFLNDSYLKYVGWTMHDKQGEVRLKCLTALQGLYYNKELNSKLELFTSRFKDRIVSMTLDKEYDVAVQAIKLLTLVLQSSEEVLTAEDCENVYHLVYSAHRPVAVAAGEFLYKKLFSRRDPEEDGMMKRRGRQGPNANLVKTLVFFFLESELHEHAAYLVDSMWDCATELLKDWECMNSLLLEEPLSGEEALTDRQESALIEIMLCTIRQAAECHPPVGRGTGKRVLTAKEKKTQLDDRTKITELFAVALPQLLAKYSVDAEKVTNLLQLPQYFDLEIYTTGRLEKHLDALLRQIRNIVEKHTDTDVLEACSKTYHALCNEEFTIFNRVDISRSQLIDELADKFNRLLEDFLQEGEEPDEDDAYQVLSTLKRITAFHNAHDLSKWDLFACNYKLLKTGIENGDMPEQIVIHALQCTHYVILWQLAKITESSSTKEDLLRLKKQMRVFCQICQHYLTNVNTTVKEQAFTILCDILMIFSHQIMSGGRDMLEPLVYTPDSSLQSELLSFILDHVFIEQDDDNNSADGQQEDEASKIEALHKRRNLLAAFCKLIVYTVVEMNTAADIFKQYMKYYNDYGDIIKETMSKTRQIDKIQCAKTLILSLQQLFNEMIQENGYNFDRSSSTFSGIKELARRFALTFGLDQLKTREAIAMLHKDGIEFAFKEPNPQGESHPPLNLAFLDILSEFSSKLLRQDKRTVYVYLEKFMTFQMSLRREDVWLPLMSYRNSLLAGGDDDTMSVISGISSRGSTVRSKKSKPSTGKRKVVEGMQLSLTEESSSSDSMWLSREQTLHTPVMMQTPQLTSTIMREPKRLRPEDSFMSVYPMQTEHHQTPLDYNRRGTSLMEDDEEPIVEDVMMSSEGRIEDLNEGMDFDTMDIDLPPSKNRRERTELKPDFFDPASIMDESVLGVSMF
UniProt P31948, whole entry, looked up: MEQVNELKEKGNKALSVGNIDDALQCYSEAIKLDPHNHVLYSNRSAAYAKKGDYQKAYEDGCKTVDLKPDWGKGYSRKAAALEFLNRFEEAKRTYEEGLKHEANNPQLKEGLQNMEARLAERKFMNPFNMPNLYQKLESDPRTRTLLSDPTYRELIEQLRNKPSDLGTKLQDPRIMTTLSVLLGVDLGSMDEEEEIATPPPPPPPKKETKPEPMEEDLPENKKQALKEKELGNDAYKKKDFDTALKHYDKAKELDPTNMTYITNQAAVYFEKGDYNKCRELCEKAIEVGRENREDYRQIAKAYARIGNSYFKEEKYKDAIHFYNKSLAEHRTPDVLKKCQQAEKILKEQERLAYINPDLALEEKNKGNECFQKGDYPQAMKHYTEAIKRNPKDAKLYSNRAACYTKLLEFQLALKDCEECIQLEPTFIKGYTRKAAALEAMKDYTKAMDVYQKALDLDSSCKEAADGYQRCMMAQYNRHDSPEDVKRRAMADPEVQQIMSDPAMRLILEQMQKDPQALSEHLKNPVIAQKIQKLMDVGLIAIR

Compound in this test: CC(C)(O)CC(=O)NCCn1ccc2ncnc(Nc3ccc(Oc4cccc(C(F)(F)F)c4)c(Cl)c3)c21
Briefly: log2 fold change, soluble protein after heating vs DMSO (PISA); higher = thermal stabilisation; K562 cells, 10 uM, 30 min; active = over 0.2 and 3.5 SD of the protein, either way, in both replicates (recomputed). The method in brief:
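Soluble protein was defined as the supernatant after 21,000xg for 90 min. It came from K562 cells at 2×10^6 cells/mL given 10 μM compound for 30 min, heated in aliquots for 3 min across 48°C-58°C, pooled, and extracted in PBS with 0.5% NP-40 at 4°C, and was quantified by TMTpro 16plex LC-MS/MS with equalised channel sums. Thermal stability against control samples, from duplicates, is reported as log2 fold change.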
For the target SRSF5 (UniProt Q13243), the log2 fold change was inactive: 0.091.

For SPRY4 (UniProt Q9C004), the log2 fold change was inactive: 0.011. With SRRT (UniProt Q9BXP5), the log2 fold change is inactive: -0.269.

On to SPCS3 (UniProt P61009), for which the log2 fold change was inactive: 0.122. With SPHK1 isoform 2 (UniProt Q9NYA1), the log2 fold change was inactive: -0.001. With SPRYD4 (UniProt Q8WW59) the figure was inactive: 0.028; with ST6GALNAC1 (UniProt Q9NSC7), inactive: 0.013.

Take SRR (UniProt Q9GZT4): the log2 fold change is inactive: -0.089.

Regarding SPTAN1 isoform 2 (UniProt Q13813), the log2 fold change is inactive: 0.078. As for SSR1 (UniProt P43307), the log2 fold change is inactive: 0.02. As to SPRYD7 (UniProt Q5W111), the log2 fold change was inactive: -0.138. Next, SPCS1, A0A5F9YFS9: inactive: 0.32; STAU1 (UniProt O95793): inactive: 0.081; SPN (UniProt P16150): inactive: 0.047. Consider SPIN1 (UniProt Q9Y657), for which the log2 fold change was inactive: -0.074. With SRM (UniProt P19623), the log2 fold change is inactive: -0.003. In the case of SQLE (UniProt Q14534), the log2 fold change was inactive: -0.037. Next, STK11 (UniProt Q15831): inactive: -0.025; SPTA1 (UniProt P02549): inactive: 0.018.

With SRA1 (UniProt Q9HD15), the log2 fold change was inactive: -0.039. Turning to STAM (UniProt Q92783), the log2 fold change is inactive: 0.042.

Regarding STAG2 (UniProt Q8N3U4), the log2 fold change is inactive: -0.018.

Turning to STIP1 isoform 2 (UniProt P31948), the log2 fold change was inactive: 0.009.

The values above are taken from the supplement of paper PMC10849652.
